# Results are given in words; binding and its absence hold for the method and conditions named. In cells and extracts the contact can be indirect. Here binding means that the protein was enriched with, or labelled near, the bait; the list need not be complete.
# Sequences of proteins named here, by UniProt entry; tags and fusion partners are left off.
# UniProt P14713: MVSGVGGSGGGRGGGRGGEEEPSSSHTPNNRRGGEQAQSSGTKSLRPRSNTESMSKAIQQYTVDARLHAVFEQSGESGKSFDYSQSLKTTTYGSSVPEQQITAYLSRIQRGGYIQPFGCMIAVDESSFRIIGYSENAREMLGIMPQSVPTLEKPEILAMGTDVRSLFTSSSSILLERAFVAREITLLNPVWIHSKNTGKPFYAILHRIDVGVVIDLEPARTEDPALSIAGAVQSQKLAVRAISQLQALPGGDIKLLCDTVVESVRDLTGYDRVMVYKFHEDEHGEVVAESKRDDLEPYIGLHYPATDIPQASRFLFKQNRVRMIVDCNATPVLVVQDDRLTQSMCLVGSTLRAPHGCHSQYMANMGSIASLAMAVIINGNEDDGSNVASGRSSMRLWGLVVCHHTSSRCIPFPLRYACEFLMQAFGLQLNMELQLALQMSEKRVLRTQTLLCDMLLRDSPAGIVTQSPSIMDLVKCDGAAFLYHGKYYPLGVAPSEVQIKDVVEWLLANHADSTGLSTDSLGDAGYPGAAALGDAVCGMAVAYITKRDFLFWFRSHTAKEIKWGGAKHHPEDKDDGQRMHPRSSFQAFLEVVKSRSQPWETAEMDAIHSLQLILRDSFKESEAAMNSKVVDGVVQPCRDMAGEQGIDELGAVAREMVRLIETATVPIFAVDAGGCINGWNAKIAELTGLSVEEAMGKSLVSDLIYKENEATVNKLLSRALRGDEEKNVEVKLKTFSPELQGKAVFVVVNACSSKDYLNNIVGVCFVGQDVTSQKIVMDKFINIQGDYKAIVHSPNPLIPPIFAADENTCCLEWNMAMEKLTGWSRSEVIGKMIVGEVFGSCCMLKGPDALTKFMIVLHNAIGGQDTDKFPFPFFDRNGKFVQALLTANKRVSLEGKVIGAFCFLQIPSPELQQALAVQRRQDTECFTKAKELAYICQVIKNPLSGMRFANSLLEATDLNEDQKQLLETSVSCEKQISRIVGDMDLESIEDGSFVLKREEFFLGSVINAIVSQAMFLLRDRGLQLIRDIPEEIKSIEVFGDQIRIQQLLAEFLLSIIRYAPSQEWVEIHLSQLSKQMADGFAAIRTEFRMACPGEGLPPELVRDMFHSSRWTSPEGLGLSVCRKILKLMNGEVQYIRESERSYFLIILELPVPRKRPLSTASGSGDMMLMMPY
# Biological target: phyB-miniTurbo (phyB CDS - miniTurbo-sCFP3A-3FLAG) (Arabidopsis thaliana) (UniProt P14713)
# Assay: proximity labelling
row,binding,Binder
1,binds,"LRR-like receptor At4g19530 (receptor, UniProt O49471 1-1189) MATSSSVVSSVPQQHQVFLNFRGDELRNNFVSHLDKALRGKQINVFIDEAVEKGENLDNLFKEIEKSRIALAIISQKYTESKWCLNELVKMKELEGKLVTIPIFYNVEPATVRYQKEAFGAALTKTQENDSDGQMKKWKEALTYVSLLVGFPFNSKSKEKETTLIDKIVDAVLQKLSKISSEESTSGSVDQGRGEEVEEAKADKISGLNQRLKELEEKVAITGDKRDETRIVEVVGMPGIGKSTLLKAFYETWKTRFLSSALLQNISELVKAMGLGRLTGMLLKELLPDENIDEETYEPYKEKLLKNTVFIVLDGISDETHIQKLLKDHRKWAKKGSKIVIARRAVTRDLLHEDSMVRYTYFVPLLSHRDGLNHFCHYAFRHFAAHQNNKEAFMKESKEFVRYARGHPLILKLLGEELREKSLSYWEEKLKSLPKSLSQNIRDRVLQVTYDELSQVQKDAFLDIACFRSHDLVYVKSLLDSSGPAFSKATVTIDALKDMFMIYISDSRVEMHDLLYTFAMELGPEARDDDGRGRHRIWHHHNQDNKGRLNRLLKRPGGSTSVRSFFLDMYVMKTDVTLGTDYLKNMRNLRYLKFYSSHCPQECTPKENIHIPGELELPLEEVRCLHWLNFPKDELPQDFIPKNLVDLKLPYSKIRQIWREEKDAPKLRWVDLNHSSKLENLSGLSQALNLERLNLEGCTALKTLLLGPENMASLVFLNLKGCTGLESLPKINLRSLKTLILSNCSNLEEFWVISETLYTLYLDGTAIKTLPQDMVKLTSLVKLYMKDCEMLVKLPEEFDKLKVLQELVCSGCKRLSSLPDVMKNMQCLQILLLDGTAITKIPHISSLERLCLSRNEKISCLSNDIRLLSQLKWLDLKYCTKLVSIPELPTNLQCLDANGCESLTTVANPLATHLPTEQIHSTFIFTNCDKLDRTAKEVITTYAQRKCQMLSDALKRWNEGFVPEALFSTCFPGCEVPSWFCHEAVGSVLKLNLLPHWNENRFVGIALCAVVGSLPNCQEQTNSCSVTCTFNIASKDSKKGDPYKISFDRLVGRWNKHGNKLDKKGNKLKKTESDHVFICYTRCSNSIKCLQDQHSGTCTPTEAFLEFGVTDKESRLEVLKCGLRLVYASDEPQKTNSDMDLSLSSSDSTPTRNGSSNTTTSSGSVSTNTIREEDSNILHEAQSQNGRGL"
2,binds,"LRR-like receptor At4g18670 (receptor, UniProt Q9SN46 32-857) LTFNGDLSDNEVRLITQRQLLYFRDEFGDRGENVDVDPSLVFENPRLRNAYIALQAWKQAILSDPNNFTTNWIGSDVCSYTGVYCAPALDNRRIRTVAGIDLNHADIAGYLPQELGLLTDLALFHINSNRFCGTVPHRFNRLKLLFELDLSNNRFAGIFPTVVLQLPSLKFLDLRFNEFEGPVPRELFSKDLDAIFINHNRFRFELPDNLGDSPVSVIVVANNHFHGCIPTSLGDMRNLEEIIFMENGFNSCLPSQIGRLKNVTVFDFSFNELVGSLPASIGGMVSMEQLNVAHNRFSGKIPATICQLPRLENFTFSYNFFTGEPPVCLGLPGFDDRRNCLPARPAQRSPGQCAAFSSLPPVDCGSFGCGRSTRPPVVVPSPPTTPSPGGSPPSPSISPSPPITVPSPPTTPSPGGSPPSPSIVPSPPSTTPSPGSPPTSPTTPTPGGSPPSSPTTPTPGGSPPSSPTTPTPGGSPPSSPTTPSPGGSPPSPSISPSPPITVPSPPSTPTSPGSPPSPSSPTPSSPIPSPPTPSTPPTPISPGQNSPPIIPSPPFTGPSPPSSPSPPLPPVIPSPPIVGPTPSSPPPSTPTPVYSPPPPSTGYPPPPPFTGYSPPSPPPPPPPTFSPSPSIPPPPPQTYSPFPPPPPPPPQTYYPPQPSPSQPPQSPIYGTPPPSPIPYLPSPPQFASPPPPAPYYYSSPQPPPPPHYSLPPPTPTYHYISPPPPPTPIHSPPPQSHPPCIEYSPPPPPTVHYNPPPPPSPAHYSPPPSPPVYYYNSPPPPPAVHYSPPPPPVIHHSQPPPPPIYEGPLPPIPGISYASPPPPPFY"
3,binds,"LRR-like receptor At4g13340 (receptor, UniProt Q9T0K5 21-760) LSISSDGGVLSDNEVRHIQRRQLLEFAERSVKITVDPSLNFENPRLRNAYIALQAWKQAILSDPNNFTSNWIGSNVCNYTGVFCSPALDNRKIRTVAGIDLNHADIAGYLPEELGLLSDLALFHVNSNRFCGTVPHRFNRLKLLFELDLSNNRFAGKFPTVVLQLPSLKFLDLRFNEFEGTVPKELFSKDLDAIFINHNRFRFELPENFGDSPVSVIVLANNRFHGCVPSSLVEMKNLNEIIFMNNGLNSCLPSDIGRLKNVTVFDVSFNELVGPLPESVGEMVSVEQLNVAHNMLSGKIPASICQLPKLENFTYSYNFFTGEAPVCLRLPEFDDRRNCLPGRPAQRSPGQCKAFLSRPPVNCGSFSCGRSVSPRPPVVTPLPPPSLPSPPPPAPIFSTPPTLTSPPPPSPPPPVYSPPPPPPPPPPVYSPPPPPPPPPPPPVYSPPPPPPPPPPPPPVYSPPPPSPPPPPPPVYSPPPPPPPPPPPPVYSPPPPPVYSSPPPPPSPAPTPVYCTRPPPPPPHSPPPPQFSPPPPEPYYYSSPPPPHSSPPPHSPPPPHSPPPPIYPYLSPPPPPTPVSSPPPTPVYSPPPPPPCIEPPPPPPCIEYSPPPPPPVVHYSSPPPPPVYYSSPPPPPVYYSSPPPPPPVHYSSPPPPEVHYHSPPPSPVHYSSPPPPPSAPCEESPPPAPVVHHSPPPPMVHHSPPPPVIHQSPPPPSPEYEGPLPPVIGVSYASPPPPPFY"
4,binds,"LRR-like receptor At4g19510 (receptor, UniProt F4JT80 1-1207) MAFASSSSSIVLSKCEFDVFVSFRGADTRHDFTSHLVKYLRGKGIDVFSDAKLRGGEYISLLFDRIEQSKMSIVVFSEDYANSWWCLEEVGKIMQRRKEFNHGVLPIFYKVSKSDVSNQTGSFEAVFQSPTKIFNGDEQKIEELKVALKTASNIRGFVYPENSSEPDFLDEIVKNTFRMLNELSPCVIPDDLPGIESRSKELEKLLMFDNDECVRVVGVLGMTGIGKTTVADIVYKQNFQRFDGYEFLEDIEDNSKRYGLPYLYQKLLHKLLDGENVDVRAQGRPENFLRNKKLFIVLDNVTEEKQIEYLIGKKNVYRQGSRIVIITRDKKLLQKNADATYVVPRLNDREAMELFCLQVFGNHYPTEEFVDLSNDFVCYAKGLPLALKLLGKGLLTHDINYWKKKLEFLQVNPDKELQKELKSSYKALDDDQKSVFLDIACFFRSEKADFVSSILKSDDIDAKDVMRELEEKCLVTISYDRIEMHDLLHAMGKEIGKEKSIRKAGERRRLWNHKDIRDILEHNTGTECVRGIFLNMSEVRRIKLFPAAFTMLSKLKFLKFHSSHCSQWCDNDHIFQCSKVPDHFPDELVYLHWQGYPYDCLPSDFDPKELVDLSLRYSHIKQLWEDEKNTESLRWVDLGQSKDLLNLSGLSRAKNLERLDLEGCTSLDLLGSVKQMNELIYLNLRDCTSLESLPKGFKIKSLKTLILSGCLKLKDFHIISESIESLHLEGTAIERVVEHIESLHSLILLNLKNCEKLKYLPNDLYKLKSLQELVLSGCSALESLPPIKEKMECLEILLMDGTSIKQTPEMSCLSNLKICSFCRPVIDDSTGLVVLPFSGNSFLSDLYLTNCNIDKLPDKFSSLRSLRCLCLSRNNIETLPESIEKLYSLLLLDLKHCCRLKSLPLLPSNLQYLDAHGCGSLENVSKPLTIPLVTERMHTTFIFTDCFKLNQAEKEDIVAQAQLKSQLLARTSRHHNHKGLLLDPLVAVCFPGHDIPSWFSHQKMGSLIETDLLPHWCNSKFIGASLCVVVTFKDHEGHHANRLSVRCKSKFKSQNGQFISFSFCLGGWNESCGSSCHEPRKLGSDHVFISYNNCNVPVFKWSEETNEGNRCHPTSASFEFYLTDETERKLECCEILRCGMNFLYARDENDRKFQGIRVTDTVERTSSEALVTIRGQSHSRIEERRYGRIRDEIMDMTGSSMIGGPES"

# — article doi:10.1101/2025.11.23.689998
